# Primary screen of a compound library

From ChEMBL document CHEMBL3988442, “University of Dundee, Small-Polar-MMV Screening Library” (2021).

Values are the deposited “Percent Effect”, in %.
The record does not define 0% and 100%; most values in the screen are far below 50% and negative numbers occur (in some assays of this library far below -100).
This is an unselected part of the compounds tested.
Two or more numbers in one place are separate tests of the same structure; such repeats can differ widely.
A dash means the value is not listed here; it may have been measured.

A: 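Whole-cell growth test on Mycobacterium tuberculosis, read after 4 days in a medium based on cholesterol and the lipid DPPC; the read-out is not stated. Concentration: 50 µM. Higher reads as more growth inhibition (inferred: compounds with an IC50 in retests scored well above the rest). Size under these conditions: about 69,000 compounds, about 370 of them at 50% or above in at least one test.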
B: 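Growth of Mycobacterium tuberculosis over 3 days (7H9 medium with glucose and tyloxapol); the read-out is not stated. Tested at 50 µM. Higher reads as more growth inhibition (inferred: compounds with an IC50 in retests scored well above the rest). Size under these conditions: about 69,000 compounds, about 760 of them at 50% or above in at least one test.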

| SMILES | A | B |
|---|---|---|
| `CCN1CCC2(CCC(=O)N2Cc2cccc(C)n2)CC1.O=C(O)C(F)(F)F.O=C(O)C(F)(F)F` | 3.536% | -1.027% |
| `CCC(C)Sc1nncn1-c1ccc(OC)nc1` (configuration not stated) | -3.917% & 3.409% | 0.04009% |
| `NC(=O)C1CN(C(=O)Nc2cc(Cl)cc(Cl)c2)CCO1` (configuration not stated) | -0.8423% | 5.475% |
| `CCc1nc(CNC(=O)Nc2nc(COC)cs2)cs1` | 1.099% | 7.1% & 5.744% |
| `COCC(=O)N1CCOC(c2cccc(-c3cncnc3)n2)C1` (configuration not stated) | 11.19% | -11.78% |
| `O=C(NCC1(O)CCSC1)c1cccc(-n2cccn2)c1` (configuration not stated) | -7.457% | -3.014% |
| `CN1CCC2(CC1)CN(C(=O)c1cnccn1)Cc1ccccc12.O=C(O)C(F)(F)F` | -3.278% | 4.01% |
| `Cc1ccc(-c2ccnc(N[C@H]3COC[C@@H]3N3CCCCC3)n2)c(C)n1` | -1.192% | -0.1112% & 1.226% |
| `Cc1cccc(-c2[nH]ncc2CNCC2CCN(CC(C)O)CC2)c1` (configuration not stated) | -1.641% | -21.06% |
| `COc1c(Cl)cccc1NCc1csc(C)n1` | 22.07% | 10.12% |
| `CC(C)c1nc(CN(C)C2CCN(CCn3cc(C#N)cn3)C2)no1` (configuration not stated) | -15.26% | -6.684% |
| `O=C(CCCOc1ccc(F)cc1F)N1CCCC1Cn1cccn1` (configuration not stated) | 1.838% | 23.41% |
| `CCCc1nnc(SCC(=O)Nc2cc(C(C)(C)C)nn2C)[nH]1` | -3.794% | -1.293% & 16.44% |
| `O=C(NCc1nc[nH]n1)c1cc(COc2cccc(F)c2)[nH]n1` | -6.665% | 8.835% & -12.29% |
| `CCOC(=O)CCC(=O)N1CCC(Oc2ncccc2Cl)CC1` | 29.29% | 22.91% & 28.16% |
| `CNC(=O)CN1CCCC12CCN(C(=O)c1ccccc1F)CC2.O=C(O)C(F)(F)F` | -9.045% | -8.068% |
| `CC(=O)NCC1CCN(C(=O)c2c(C)[nH]c3ccc(Cl)cc23)CC1` | 17.9% | 21.2% |
| `CC(C)C(=O)NCc1ccc(-n2cncn2)nc1` | 5.777% | 5.727% |
| `COc1ccccc1CC(C)CC(=O)O` (configuration not stated) | 1.378% | -10.08% & -2.65% |
| `NC[C@H]1CC[C@H](C(NC(=O)CC2CCCCC2)c2ccccn2)CC1` (some centres not stated) | -9.949% | -1.21% |
| `CC(=O)NC[C@]1(O)CCN(C(=O)c2ccc(C)c(F)c2)C[C@H]1O` | -5.557% | -10.53% |
| `O=C1NCCCc2[nH]c(-c3nc(C4CC4)no3)nc21` | -15.62% | 6.167% |
| `N#CCCN(Cc1ccco1)C(=O)c1ccc(OCC2CC2)cc1` | -1.664% & 11.45% | -2.476% |
| `[H][C@@]12CS(=O)(=O)C[C@]1([H])NCCN2c1ccnc(N(C)Cc2ccccn2)n1` | -1.821% | -13.84% |
| `COCC1CC2(CCN(Cc3ccoc3)CC2)CN1C(C)C.O=C(O)C(F)(F)F.O=C(O)C(F)(F)F` (configuration not stated) | 8.579% | 30.39% |
| `CNS(=O)(=O)CC1CCCN1c1ccccn1` (configuration not stated) | 2.396% | -31.76% |
| `O=C1C(NS(=O)(=O)c2ccc(F)cc2F)CCN1Cc1ccccc1` (configuration not stated) | 2.359% | -27.23% |
| `COc1ncc(CN(C)C2CCN(C(C)C)CC2)cn1` | -3.702% | -8.518% |
| `CC(C)N(C)C(=O)c1ccc(Cl)c(NC(=O)C2CCC2)c1` | -16.29% | 4.034% |
| `CN(C)CCCNC(=O)c1nc(Cc2c(Cl)cccc2Cl)no1` | -28.76% | -5.481% & 35.31% |
| `COc1cccc(-n2nc(C(C)=O)c(C(C)=O)c2C)c1` | 13.88% | 25.81% & 18.62% |
| `COC(=O)C1CN(Cc2ccn(-c3ccc(F)cc3)n2)CCO1` (configuration not stated) | -15.76% | 33.28% & 23.27% |
| `COCCN(Cc1cnn(C)c1)CC1CCN(C(C)C)CC1` | 3.623% | 16.77% |
| `O=C(CCc1ccsc1)N1CCC(Cc2ccc(CO)cc2)C1` (configuration not stated) | 22.26% | 14.25% & 24.04% |
| `Cc1ccc2c(c1)C(=O)NCC1(CCN(Cc3ccccc3)CC1)O2` | -1.992% | -8.414% |
| `c1ccc(CN2CCC3(CC2)Nc2ccccc2CO3)cc1` | 14.06% | -4.529% |
| `CCOc1ccc(N2CCCN=C2NC(=O)c2cccc(OC)c2)cc1` | -33.84% | -5.527% |
| `CCCC(C)C(=O)NCc1cn2cc(Br)ccc2n1` (configuration not stated) | -2.602% | 26.07% & 9.993% |
| `Cc1nccc(CN2Cc3nccn3CC2c2ccccc2)n1` (configuration not stated) | 3.937% & -19.1% | 2.153% |
| `CCN1CCCC(CNC(=O)C2(c3cccc(Cl)c3)CC2)C1` (configuration not stated) | -3.699% | -1.162% |
| `Cc1cc(=O)n2c3c(cc(S(=O)(=O)NC4CC4)cc13)CCC2` | -63.83% | - |
| `CC(NC(=O)NCC1(c2ccc(F)cc2)CCC1)c1nncn1C` (configuration not stated) | 1.835% | 6.632% |
| `Cc1nnnn1-c1cc(NCc2cc(C#N)ccc2F)ccc1F` | 3.626% | 32.63% |
| `Cc1ccc(C(=O)N2CCC3(CC2)NC(=O)CC3c2ccccc2)cn1.O=C(O)C(F)(F)F` (configuration not stated) | 5.143% | -2.409% |
| `O=C(Nc1cc(-c2ccncc2)no1)C1CCC1` | -2.99% | 23.85% |
| `CC(C)Nc1n[nH]c2nc(C3CCN(C(=O)c4ccccn4)C3)ccc12` (configuration not stated) | -16.18% | -12.94% |
| `CCOC(=O)CNC(=O)c1cccnc1Oc1ccc(Cl)cc1` | -17.18% | -22.3% |
| `Cc1cnc(-c2nc(C3CCN(C(=O)Cc4ccsc4)CC3)no2)cn1` | 2.141% | -25.28% |
| `CN(C)C(C(=O)N1CCSCC1)c1ccccc1F` (configuration not stated) | -14.5% | -6.97% |
| `CN1C(=O)C2(CCN(CC3CCC3)C2)c2ccccc21.O=C(O)C(F)(F)F` (configuration not stated) | -31.98% | -28.84% |
| `Cc1nc(COC(=O)c2cccc3c2OCCO3)no1` | -76.61% | -16.44% |
| `NC(=O)N1CCC2(CCN(C(=O)c3cccnc3)CC2)C1.O=C(O)C(F)(F)F` | -6.506% | -24.35% |
| `Cc1nc(CCNC(=O)NCC(O)c2cccc(Cl)c2)cs1` (configuration not stated) | 1.52% | -6.25% & -3.756% |
| `CCC(CO)N(Cc1cccs1)C(=O)Cc1ccc(O)cc1` (configuration not stated) | -14.82% | -21.19% |
| `CS(=O)(=O)NCCC(=O)NCc1cccnc1-n1cnc2ccccc21` | -28.28% | -34% |
| `Cc1ccc(O)c(CNc2cccc(CN3CCSCC3)c2)n1` | -4.32% | 11.05% |
| `Fc1cccc(Nc2nc(N3CCCC3)nc3c2CNCC3)c1` | 69.5% | 83.85% |
| `CC1(c2ncc(CN3CCOCC3)cn2)CCCCO1` (configuration not stated) | -19.95% & -16.96% | -15.99% |
| `CC(C)CNC(=O)c1ccc(NC(=O)NCC2CC2)cc1Cl` | -23.67% | -33.91% & 1.382% |
| `CCOc1ccccc1NC(=O)Nc1cc(N2CCCC2)ncn1` | 5.872% | -3.844% & 18.35% |
| `COCCn1ccc2c(NC(=O)C(C)C)cccc21` | -7.996% | 9.515% |
| `NC(=O)c1cnn2c1NCC(CNC1(c3ccccc3)CCC1)C2` (configuration not stated) | -8.342% | 27.17% |
| `CN1CCN(C[C@H]2CC[C@@H](Cc3ccc4c(c3)OCO4)O2)CC1` | 7.183% | 11.36% |
| `Cc1ccccc1N1CCN(c2ccncn2)C(C)C1` (configuration not stated) | 9.07% | 31.64% & 22.57% |
| `Cc1nc(CN2CCCCC2CCc2ccc(O)cc2)no1` (configuration not stated) | 4.394% | 4.5% |
| `COc1ccc(CN2CC(O)CN(C(=O)C3CCC3)CC2=O)cc1` (configuration not stated) | -11.23% | 1.399% |
| `COc1c(CNCc2ccc3c(c2)OCO3)c(C(C)C)nn1C` | -21.53% | 5.771% |
| `CCc1cc(CN(C)C(=O)CN2CC3(CCNCC3)OC2=O)on1` | -11.04% | 14.89% |
| `CC(Cn1cccn1)NCC(=O)N(C)Cc1ccsc1` (configuration not stated) | -11.14% | 29.24% |
| `Cc1noc(C)c1CN1CCc2cnn(C)c2C1COCC1CC1.O=C(O)C(F)(F)F.O=C(O)C(F)(F)F` (configuration not stated) | 2.492% | -7.119% & -4.915% |
| `Cc1ncc(CC(=O)N2CCCCC2CCN2CCCC2)c(=O)[nH]1` (configuration not stated) | 2.721% | -45.28% & 1.242% |
| `CCc1ccc(C(=O)N(CC)Cc2ccoc2)cc1S(C)(=O)=O` | 1.752% | 24.03% |
| `O=C(c1cnccn1)N1CC(S(=O)(=O)c2ccc(Cl)cc2)C1` | 2.98% | 1.359% |
| `CCN(Cc1ccc2c(c1)OCO2)C(=O)c1ccc(=O)n(C)c1` | -5.327% | 2.283% |
| `CC(C)Oc1cccc(CNC(Cc2ccsc2)c2nccs2)c1.Cl` (configuration not stated) | 19.21% | 22.47% |
| `CN1CC[C@]2(CN(C(=O)[C@H]3CCCO3)C[C@H]2c2ccccc2)C1=O` | -6.674% | -5.739% & -11.9% |
| `O=C(O)C(F)(F)F.O=C(O)C(F)(F)F.[H][C@]12CCN(c3ccccc3)C[C@@]1([H])OCCN(Cc1ccncc1)C2` | 7.002% | 20.67% |

The last 6 entries again:

SMILES,A,B
CCc1ccc(C(=O)N(CC)Cc2ccoc2)cc1S(C)(=O)=O,1.752%,24.03%
O=C(c1cnccn1)N1CC(S(=O)(=O)c2ccc(Cl)cc2)C1,2.98%,1.359%
CCN(Cc1ccc2c(c1)OCO2)C(=O)c1ccc(=O)n(C)c1,-5.327%,2.283%
CC(C)Oc1cccc(CNC(Cc2ccsc2)c2nccs2)c1.Cl (configuration not stated),19.21%,22.47%
CN1CC[C@]2(CN(C(=O)[C@H]3CCCO3)C[C@H]2c2ccccc2)C1=O,-6.674%,-5.739% & -11.9%
O=C(O)C(F)(F)F.O=C(O)C(F)(F)F.[H][C@]12CCN(c3ccccc3)C[C@@]1([H])OCCN(Cc1ccncc1)C2,7.002%,20.67%